About 22,000 (6.9%) of roughly 320,000 compounds were called active. The inconclusive results got no clear call from the source; some entries with a clear call stand among them for comparison. The call rests on the fitted dose curve; in most records, active means well fitted inhibition curve with a large enough effect; inconclusive means small, poorly fitted or top-dose-only effect, or another doubt; inactive means no such curve, though single readings can be large or run the other way. Potencies beside an inconclusive call are fits to weak or partial responses and may not hold up.
Experiment: Primary qHTS for delayed death inhibitors of the malarial parasite plastid, 96 hour incubation
Conditions: P. falciparum luciferase reporter growth; series mostly up to 28.7 µM
How it was run: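 P. falciparum expressing integrated firefly luciferase, in erythrocytes at 2% hematocrit, 0.05% parasitemia, incubated with compounds 96 h at 37 C, 5% CO2. Growth inhibition read as loss of luminescence; two-generation exposure targets delayed-death apicoplast inhibitors.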
With `COc1ccccc1C(=O)NNC(=O)c1ccc(NC(=O)c2ccccc2)cc1` the Potency was “inactive”. In the case of `O=C1C2C3CCC(C3NCc3ccccc3)C2C(=O)N1Cc1ccccc1` (stereo unspecified), the Potency is reported as inconclusive: 2.08 µM [inhibitor, full curve, poor fit]. In the case of `O=c1[nH]c(CSc2nnc(-c3ccco3)n2-c2ccccc2)nc2sc3c(c12)CCC3`, the Potency is reported as inconclusive: 3.7 µM [inhibitor, full curve, poor fit]. In the case of `COc1ccc(-n2ncc3c2CC(C)(C)CC3NC(=O)C2=CC(=O)CC(C)(C)O2)cc1` (stereo unspecified), the Potency is reported as inconclusive: 18.5 µM [inhibitor, single point]. With `CS(=O)(=O)N1CCc2ccc(NC(=O)C3CCCO3)cc2C1` (stereo unspecified) the Potency was inconclusive: 13.1 µM [inhibitor, single point]. In the case of `CC(=O)NC12CC3CC(C1)CC(C(=O)N1CCN(S(=O)(=O)c4ccc(Cl)s4)CC1)(C3)C2`, the Potency is reported as inconclusive: 8.28 µM [inhibitor, partial curve, poor fit]. For `O=C(NCc1ccc2c(c1)OCO2)c1cccc([N+](=O)[O-])c1`, the Potency was “inactive”. With `COc1cc2c(cc1OC)CN(c1nc(CN3CCCC3)nc3sc(C)c(C)c13)CC2` the Potency was inconclusive: 16.5 µM [inhibitor, single point]. In the case of `COc1ccc(S(=O)(=O)Nc2cc(SCC(=O)O)c(O)c3ccccc23)cc1`, the Potency is reported as inconclusive: 0.738 µM [inhibitor, full curve]. In the case of `CC(=O)c1ccc(OCc2cc(C(=O)N3CCC(c4ccncc4)CC3)no2)cc1`, the Potency is reported as “inactive”. For `O[C@H]1c2ccccc2[C@H](Cc2cncs2)[C@@H]1Br`, the Potency was “inactive”. With `COc1cc(C2C(C(=O)c3cccs3)=C(O)C(=O)N2Cc2ccco2)cc(OC)c1OC` (stereo unspecified) the Potency was “inactive”. For `CCC(=O)N1CCc2cc(S(=O)(=O)CCC(=O)Nc3ccc(OC)c(OC)c3)ccc21`, the Potency was inconclusive: 0.738 µM [inhibitor, partial curve, poor fit]. For `Cc1[nH]c2ccccc2c1CCCO`, the Potency was “inactive”. In the case of `O=C(c1ccc(CS(=O)(=O)c2c(Cl)cccc2Cl)o1)N1CCN(c2ccccn2)CC1`, the Potency is reported as inconclusive: 18.5 µM [inhibitor, single point]. With `COC(=O)C1=C(C)NC(=S)NC1c1sccc1C` (stereo unspecified) the Potency was inconclusive: 10.4 µM [inhibitor, partial curve]. For `COC(=O)c1cc(OC)c(OC)cc1NC(=O)Nc1ccc(OC)cc1`, the Potency was “inactive”. In the case of `COc1cccc(N2CCN(c3ccc4nnc(CCC(=O)Nc5ccc(F)cc5F)n4n3)CC2)c1`, the Potency is reported as inconclusive: 5.22 µM [inhibitor, partial curve]. With `CCCc1ccc(OCc2nc(-c3ccc(NC(=O)c4cccs4)cc3)no2)cc1` the Potency was inconclusive: 18.5 µM [inhibitor, single point]. In the case of `COc1ccccc1CNC(=O)c1cn(C)c2ccc(S(=O)(=O)N3CCCC3)cc2c1=O`, the Potency is reported as inconclusive: 4.15 µM [inhibitor, partial curve, poor fit]. For `O=C(N/N=C/c1cc([N+](=O)[O-])ccc1O)C(O)(c1ccccc1)c1ccccc1`, the Potency was inconclusive: 10.4 µM [inhibitor, single point]. For `Cc1cccc(C)c1NC(=O)c1c(O)c2ccccc2[nH]c1=O`, the Potency was “inactive”. With `COc1ccc(/C=N/OCC(=O)Nc2cc(C)on2)cc1OC` the Potency was “inactive”. For `COC(=O)C1=C(C)Nc2c(c(=O)n(C)c(=O)n2C)C1c1ccc(Cl)cc1` (stereo unspecified), the Potency was “inactive”. In the case of `Cc1ccc(S(=O)(=O)/N=C(/c2ccccc2)N2CCOCC2)c(C)c1`, the Potency is reported as active: 5.86 µM. With `Cc1ccc(OCCN2C(=O)CSC2=O)cc1` the Potency was “inactive”. In the case of `Cc1c(Cl)cccc1NC(=S)N/N=C/c1ccccc1Cl`, the Potency is reported as inconclusive: 11.7 µM [inhibitor, single point]. With `COc1cccc(CNC(=O)c2ccc(Cl)c(S(=O)(=O)N3CCOCC3)c2)c1` the Potency was active: 6.57 µM. For `O=C1/C(=C/c2cccnc2)Oc2cc(OS(=O)(=O)c3ccccc3)ccc21`, the Potency was inconclusive: 18.5 µM [inhibitor, single point]. With `COCCn1c(SCC(=O)c2[nH]c(C)c(C(C)=O)c2C)nc2ccccc2c1=O` the Potency was inconclusive: 13.1 µM [inhibitor, single point]. In the case of `CCOC(=O)c1c(NC(=O)CN2C(=O)NC(C)(c3ccccc3)C2=O)sc(C)c1C` (stereo unspecified), the Potency is reported as inconclusive: 13.1 µM [inhibitor, partial curve, poor fit]. In the case of `O=C(COC(=O)CC1CCCC1)Nc1cccc(F)c1`, the Potency is reported as “inactive”. With `O=C(CSc1ccc(S(=O)(=O)N2CCOCC2)cn1)Nc1ccc(F)c(F)c1` the Potency was inconclusive: 18.5 µM [inhibitor, single point]. In the case of `CCOc1nc(NC(=O)NS(=O)(=O)c2ccccc2F)nc(-c2ccccc2)n1`, the Potency is reported as inconclusive: 0.522 µM [inhibitor, full curve, poor fit]. In the case of `COC(=O)c1ccccc1NC(=O)CSc1nc(N)cc(N)n1`, the Potency is reported as inconclusive: 13.1 µM [inhibitor, single point]. With `O=S(=O)(NCc1nnc2ccccn12)c1ccc(Cl)cc1` the Potency was “inactive”. For `CCOC(=O)C1CCCN(S(=O)(=O)c2cc(C(=O)OC)n(C)c2)C1` (stereo unspecified), the Potency was “inactive”. For `O=C(OCc1nnc(-c2ccccc2)o1)c1ccc2c(c1)OCO2`, the Potency was inconclusive: 10.4 µM [inhibitor, single point]. With `Cc1cc(C)c(NC(=O)/C(C#N)=C/c2ccc(OCc3ccc(F)cc3)cc2)c(C)c1` the Potency was inconclusive: 10.4 µM [inhibitor, partial curve, poor fit]. In the case of `COc1ccc(NS(=O)(=O)c2cc(NC(=O)c3ccccc3F)ccc2N2CCCC2)cc1`, the Potency is reported as inconclusive: 6.57 µM [inhibitor, partial curve]. For `CNC(=O)c1ccc(NC(=O)c2cc(S(=O)(=O)N(C)C)ccc2N2CCCC2)cc1`, the Potency was inconclusive: 11.7 µM [inhibitor, single point]. With `CC(=O)N1N=C(c2cccs2)CC1c1ccco1` (stereo unspecified) the Potency was inconclusive: 18.5 µM [inhibitor, single point]. With `CN(C)c1ccc(NC(=O)c2ccc(N3CCOCC3)nc2)cc1` the Potency was inconclusive: 10.4 µM [inhibitor, single point]. For `O=C(CSc1nnc(-c2ccco2)o1)c1ccccc1`, the Potency was inconclusive: 13.1 µM [inhibitor, partial curve, poor fit]. In the case of `COc1cccc(CNC(=O)C2CCN(c3ncnc4c3nc3n4CCCCC3)CC2)c1`, the Potency is reported as inconclusive: 1.65 µM [inhibitor, full curve, poor fit]. In the case of `COc1ccc(CN(C)C(=O)Cc2ccc(OC)c(S(=O)(=O)N3CCOCC3)c2)cc1`, the Potency is reported as inconclusive: 11.7 µM [inhibitor, single point]. With `Cc1nc2ccc(NC(=O)c3ccc(Cl)c(S(=O)(=O)N(C)c4ccccc4)c3)cc2s1` the Potency was inconclusive: 4.15 µM [inhibitor, single point]. For `O=C(c1cccc(S(=O)(=O)N2CCOCC2)c1)N1CCC(Cc2ccccc2)CC1`, the Potency was inconclusive: 18.5 µM [inhibitor, single point]. For `COc1ccc(CCNC(=O)C2CCN(S(=O)(=O)c3ccc(C)cc3)CC2)cc1OC`, the Potency was inconclusive: 0.522 µM [inhibitor, full curve, poor fit]. With `COc1ccc2c(Cl)c(C(=O)N/N=C3\CCCC(=O)C3)sc2c1` the Potency was inconclusive: 18.5 µM [inhibitor, single point]. With `CCN1C/C(=C/c2cccc([N+](=O)[O-])c2)C(=O)/C(=C/c2cccc([N+](=O)[O-])c2)C1` the Potency was active: 2.33 µM. For `Cc1ccc(-c2nc3ccccc3s2)cc1S(=O)(=O)N1CCOCC1`, the Potency was inconclusive: 16.5 µM [inhibitor, partial curve, poor fit]. In the case of `Cc1cc(C)c(NC(=O)CNC(=O)CN(C)Cc2ccc(Br)s2)c(C)c1`, the Potency is reported as inconclusive: 18.5 µM [inhibitor, single point]. In the case of `COc1ccccc1NC(=O)c1ccccc1Oc1ccccc1`, the Potency is reported as inconclusive: 18.5 µM [inhibitor, single point]. In the case of `O=C1CCC[C@@H]2[C@H]3CCC[N+]4([O-])CCC[C@@H](CN12)[C@@H]34` (stereo partly specified), the Potency is reported as inconclusive: 1.85 µM [inhibitor, partial curve]. In the case of `CCc1cc(-c2nnc(SCC(=O)NC3CC3)n2C)cs1`, the Potency is reported as “inactive”. With `O=C1CN(C(=O)c2ccccn2)c2ccccc2N1` the Potency was inconclusive: 2.08 µM [inhibitor, partial curve, poor fit]. In the case of `O=S(=O)(Nc1ccc(S(=O)(=O)Nc2nccs2)cc1)c1ccc(Br)cc1`, the Potency is reported as inconclusive: 0.104 µM [inhibitor, full curve]. With `O=C1OC(N2C(=O)CC[C@H]2C(=O)Nc2ccc(Br)cc2F)c2ccccc21` (stereo partly specified) the Potency was “inactive”. With `NCCN` the Potency was “inactive”. For `CCCCn1c(N)c(N(CC(C)C)C(=O)CSCC(=O)Nc2ccc(C)cc2)c(=O)[nH]c1=O`, the Potency was inconclusive: 16.5 µM [inhibitor, partial curve, poor fit]. With `CC(c1ccccc1)N(NC(=O)C(O)(c1ccccc1)c1ccccc1)C(=O)c1ccccc1` (stereo unspecified) the Potency was inconclusive: 18.5 µM [inhibitor, single point]. With `O=C(Cc1ccc(S(=O)(=O)N2CCOCC2)s1)N1CCN(c2ccc(C(F)(F)F)cc2[N+](=O)[O-])CC1` the Potency was active: 11.7 µM. In the case of `O=C(O)c1cc2c(cc1NC(=O)c1c(F)cccc1Cl)OCCCO2`, the Potency is reported as inconclusive: 18.5 µM [inhibitor, partial curve, poor fit]. In the case of `FC(F)(F)c1cc(-c2ccco2)nc(NCc2ccccc2)n1`, the Potency is reported as inconclusive: 2.62 µM [inhibitor, full curve]. For `CC(C)C[C@H](NC(=O)C1(c2ccccc2)CCN(C(=O)OC(C)(C)C)CC1)C(=O)N1CCC[C@H]1C(=O)O`, the Potency was inconclusive: 18.5 µM [inhibitor, single point].

Source: PubChem BioAssay AID504834 (National Center for Advancing Translational Sciences (NCATS), 2011)
Potency means the concentration at half of the fitted maximal effect.
